Record: PubChem BioAssay AID1259424 (University of Nebraska Medical Center, 2018)
The deposit covers about 14,000 reagents; shown is a part drawn at random. 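Higher correlation or smaller distance means closer resemblance to KSR1 loss; control wells, including KSR1 knockdowns, recur on many plates.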 Reagents against one gene are numbered here. The record does not give: the time to read-out.

- Aim: 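Rank knockdowns across the genome by resemblance to the KSR1 depletion profile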 (primary screen)
- Cell system: human HCT116 colon cancer cells
- Knock-down reagent: siRNA pool against human genes, 50 nM
- Measured: 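Six signature mRNAs by branched-DNA multiplex assay, scaled to two housekeeping genes and non-targeting median, log2; matched to mean KSR1 knockdown profile by Pearson correlation and euclidean distance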
- Scale: mean correlation with KSR1 profile and KSR1 correlation: higher = expression change more like KSR1 knockdown; mean distance from KSR1 profile: higher = expression change less like KSR1 knockdown

no.	target gene	reagent no.	mean correlation with KSR1 profile	mean distance from KSR1 profile	KSR1 correlation, replicate 1	KSR1 correlation, replicate 2	KSR1 correlation, replicate 3
1	CCDC88C	1	0.421	1.21	0.377	-0.154	0.446
2	NFATC2IP	1	0.0254	3.84	-0.0508	0.16	-0.245
3	PLA2R1	1	0.468	2.27	0.00316	0.774	0.362
4	IL25	1	-0.185	1.95	-0.546	0.174	-0.152
5	FAS	1	-0.642	1.54	-0.542	-0.591	-0.452
6	MARK3	1	0.719	1.62	0.669	0.769	0.793
7	APAF1	1	0.524	1.82	0.539	0.636	0.532
8	TAF3	1	0.687	2.23	0.4	0.645	0.738
9	PYM1	1	-0.0356	1.76	-0.126	-0.101	0.0383
10	TRHDE	1	-0.162	5.04	-0.0933	-0.0104	-0.0648
11	DTX4	1	-0.608	3.26	-0.639	-0.659	-0.181
12	ADAM12	1	0.0958	1.31	-0.0521	0.0749	0.0341
13	CCR2	1	0.722	1.14	0.533	0.794	0.712
14	ZNF2	1	-0.275	2.13	0.107	-0.678	-0.296
15	PIP5K1B	1	0.234	1.95	0.39	0.0701	0.228
16	SURF2	1	-0.13	2.7	-0.163	-0.177	-0.0638
17	DISP2	1	0.473	1.92	0.51	0.427	0.277
18	NOP16	1	-0.527	2.75	-0.633	-0.214	-0.144
19	CTDP1	1	-0.373	1.48	-0.308	-0.259	-0.538
20	SLC22A23	1	0.197	1.32	0.259	0.455	0.0728
21	SLC22A23	2	0.406	1.75	0.36	-0.621	0.35
22	C2orf42	1	0.228	1.58	0.396	0.113	-0.0574
23	PPFIA4	1	0.304	1.42	0.0254	0.424	0.116
24	ZBTB18	1	-0.253	2.14	-0.244	-0.131	-0.206
25	ANKRD36B	1	-0.0452	1.31	-0.226	0.246	-0.229
26	MAPK13	1	0.439	1.67	0.562	0.315	0.108
27	FERRY3	1	0.177	1.1	-0.064	0.293	0.35
28	CTBP2	1	0.0964	2.32	-0.158	0.266	0.347
29	CARF	1	0.233	1.46	0.0326	0.252	0.183
30	CCDC47	1	-0.774	2.99	-0.724	-0.542	-0.571
31	HOXB5	1	0.212	7.95	0.462	0.47	0.36
32	CUL3	1	-0.934	1.95	-0.748	-0.967	-0.871
33	SLC34A2	1	-0.858	1.77	-0.911	-0.693	-0.863
34	SLC29A1	1	-0.318	2.11	-0.462	-0.561	0.169
35	TROAP	1	0.423	5.08	0.601	0.397	0.423
36	MYO3B	1	0.288	2.02	0.34	0.41	0.181

Single entries from the list.
Entry of MAPK13 in “KSR1 correlation, replicate 1”: 0.562
SURF2, KSR1 correlation, replicate 1 → -0.163
CTBP2, KSR1 correlation, replicate 1: -0.158
ZNF2, mean distance from KSR1 profile = 2.13
Value for MARK3 under “mean distance from KSR1 profile”: 1.62
CCDC47, mean distance from KSR1 profile → 2.99

More records follow:
no.	target gene	reagent no.	mean correlation with KSR1 profile	mean distance from KSR1 profile	KSR1 correlation, replicate 1	KSR1 correlation, replicate 2	KSR1 correlation, replicate 3
37	VPS33A	1	0.013	2.05	-0.0447	-0.214	-0.00687
38	SP6	1	0.294	2.92	0.0778	0.356	0.203
39	SCHIP1	1	-0.213	1.92	-0.35	-0.444	-0.435
40	ADAP1	1	0.109	1.48	0.0464	0.0476	0.112
41	RBM28	1	0.183	2.78	0.314	-0.0397	0.00695
42	PLGLB2	1	-0.569	2.54	-0.353	-0.558	-0.639
43	RNF135	1	0.453	2.91	0.254	0.563	0.459
44	RNF38	1	0.466	1.33	0.15	0.54	0.494
45	WASL	1	0.153	2.26	0.179	0.361	0.304
46	RPA1	1	-0.709	2.44	-0.427	-0.788	-0.599
47	TMEM248	1	-0.244	1.81	-0.139	-0.399	-0.0636
48	WIPI2	1	-0.289	1.98	0.0443	-0.264	-0.509
49	GPR34	1	-0.0181	3.04	0.4	0.579	-0.56
50	TMIGD3	1	0.655	1.34	0.688	0.764	0.562
51	RLN1	1	-0.0502	0.974	0.396	-0.462	-0.165
52	FKRP	1	-0.247	2.32	-0.553	-0.101	0.0948
53	TRIM29	1	0.0153	1.82	0.404	-0.308	-0.294
54	RBM48	1	0.849	0.765	0.674	0.887	0.87
55	HTR7	1	0.697	1.25	0.481	0.703	0.777
56	TAF1B	1	0.127	1.98	0.402	0.537	-0.236
57	NAT2	1	0.134	2.32	0.0433	0.191	0.111
58	ASAP1	1	-0.433	3.46	-0.23	-0.323	-0.364
59	PSMA5	1	0.0369	5.42	0.151	-0.0746	0.023
60	SPHKAP	1	0.457	1.89	0.429	0.301	0.571
61	RBP2	1	0.163	1.58	0.295	-0.00629	0.251
62	PDZD4	1	-0.0534	1.71	0.0255	-0.197	-0.12
63	ANGPTL6	1	0.731	2.78	0.569	0.721	0.813
